PubChem BioAssay AID1259306 | Sanger Institute – 2017
In all, the deposit lists 794 reagents; shown is a random part of them. In the full data, 11 (1.4%) got an active call. 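Calls reflect knock-down alone; synergy scores play no part, so knock-downs synergising with a drug can be called no change.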 Entries without a mark were called inactive. Viability is capped at 1. Not stated in the record: the amount of reagent, the time to read-out.

- Assay: 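Kinases needed for viability and knock-downs that synergise with BYL719, cetuximab or trametinib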 (primary screen)
- Cells: human SNU-C5 colorectal cancer cells
- Knock-down reagent: siRNA pool against human genes
- Conditions: DMSO vehicle alone, or one anchor drug: BYL719 at 1 µM, cetuximab at 5 µg/ml or trametinib at 10 nM, given 24 h into the assay
- Read-out: 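Replicate-averaged viability against non-targeting pool control, given as fraction and robust z-score; separate synergy scores for BYL719, cetuximab and trametinib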
- Direction: robust z-score, knock-down alone and viability, knock-down alone: higher = more viable cells; synergy score with BYL719: higher = stronger synthetic lethality with BYL719; synergy score with cetuximab: higher = stronger synthetic lethality with cetuximab; synergy score with trametinib: higher = stronger synthetic lethality with trametinib
- Rule for the call: 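Essential if knock-down without drug gives a robust z-score under -3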
- Calls: active = essential (knock-down alone); inactive = no change alone

no.	target	robust z-score, knock-down alone	viability, knock-down alone	synergy score with BYL719	synergy score with cetuximab	synergy score with trametinib
1	KRAS	0.0877	0.876	-0.0453	0.129	-0.0292
2	BMPR1B	-0.545	0.789	-0.0781	-0.139	-0.235
3	TBCK	-0.161	0.842	0.0419	-0.00388	-0.0523
4	MED12	0.0752	0.874	0.142	-0.00918	-0.332
5	AK1	0.0336	0.868	0.0508	0.334	-0.0579
6	SGK3	0.989	1	0	0	-0.023
7	MAP3K9	-2.64	0.5	0.00163	-0.0996	-0.268
8	MAST3	-0.0209	0.861	0.0649	0.0111	-0.0159
9	MAP3K5	0.989	1	0.255	0.0456	0.107
10	PRKCH	-0.763	0.759	0.199	-0.122	0.00344
11	VRK1	-1.62	0.64	-0.0576	-0.173	-0.285
12	MAK	-0.61	0.78	0.141	-0.209	-0.0823
13	NEK6	0.989	1	0	0	-0.146
14	MARK2	0.989	1	0	0	-0.0128
15	ATP23	0.989	1	0.0659	0	-0.235
16	AGK	0.622	0.949	0.0732	-0.0506	-0.174
17	SRPK1	0.101	0.878	0.0283	-0.0795	0.0647
18	DYRK3	0.0758	0.874	0.233	0.121	-0.00227
19	FN3K	-0.906	0.739	-0.155	-0.194	-0.113
20	BMPR2	0.684	0.958	0.079	0.0468	-0.0135
